Primary screen of a compound library

Data taken from ChEMBL document CHEMBL3988442, “University of Dundee, Small-Polar-MMV Screening Library” (2021).

Results are given as percent effect. The controls that fix the scale are not given in the record; negative values are as filed. The compounds are a random part of those screened. Two or more numbers in one place are separate tests of the same structure; such repeats can differ widely.

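Viability assay of Plasmodium falciparum sporozoites; the read-out is not stated. The concentration is filed as 10 mM, unlikely as a test dose, so the dose is not known. The record gives no direction; compounds that gave an IC50 in retests scored well above the rest, so higher reads as lower viability. Strong results were mostly tested again. Size under these conditions: about 34,000 compounds, about 280 of them at 50% or above in at least one test.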

For O=C(O)C(F)(F)F.[H][C@]12CCN(c3ncccn3)C[C@@]1([H])CN(Cc1cccnc1OC)C2 the result was -3.51%.
For Cc1nc(C)n(CC2CCCCN2CC(=O)NC2CCOCC2)n1 (stereo not shown) the result was 6.705%.
For Cc1ccc2c(c1)CN(C(=O)c1ccncc1)C(CN(C)C)CO2.Cl (stereo not shown) the result was 8.44%.
For O=C(O)[C@@H]1CCN(C(=O)Cc2ccccn2)[C@@H]1c1ccc(F)cc1 the result was 2.558%.
For CNC(=O)c1nc2c(s1)CCN(C(=O)c1cccnc1)CC2.O=C(O)C(F)(F)F the result was -8.117%.
For Cc1nc(C)n(CC2CN(CCOc3ccc(C#N)cc3)CCO2)n1 (stereo not shown) the result was 14.66%.
For CC(C)(C)NC(=O)CNc1ncccn1 the result was 3.547%.
For CS(=O)(=O)N1CCC(NC(=O)COc2ccccc2Cl)CC1 the result was -10.47%.
For CCC(=O)Nc1nnc(CCOc2cccc(OC)c2)s1 the result was -15.35%.
For c1nc2c(c(C3CC3)n1)CCN(Cc1ccoc1)CC2 the result was -16.37% & 0.8668% & -3.118%.
For CCC(=O)N1C[C@@H](C(=O)NC)[C@H](c2ccnc(N3CCCC3)n2)C1.Cl the result was 6.214%.
For O=C(C1SCCc2sccc21)N1CCN(C2CC2)C(=O)C1 (stereo not shown) the result was -6.915%.
For CC(=O)N(C)CCCc1cc(-c2ccccc2)no1 the result was -10.99%.
For Cc1nc(C)n(CC2CCCN2CC(=O)Nc2cc(C)on2)n1 (stereo not shown) the result was -117.7%.
For CC(NC(=O)CCc1ccsc1)c1ccc2c(c1)NC(=O)CO2 (stereo not shown) the result was 5.594%.
For CC(C)c1nn(C)c(N(C)C)c1CNCCC(=O)NC1CCCCC1 the result was 3.142%.
For COC(=O)NCC(=O)NCC(C)(C)c1cccc(Br)c1 the result was 1.205%.
For CC(C)(CO)Nc1cc(-c2ccncc2)ncn1 the result was -5.504%.
For COc1cc(C(=O)N2CCCC(n3cncn3)C2)ccc1C (stereo not shown) the result was -2.521%.
For O=C(CN1CCOc2ccc(Cl)cc21)NCc1ncc[nH]1 the result was -10.66%.
For CCc1noc(CNc2ccc(F)cc2OCC2CC2)n1 the result was -19.18%.
For CN1CCOC(CN(C(=O)CC2CCCC2)c2nccs2)C1 (stereo not shown) the result was -7.602%.
For O=C(c1ccc(-n2cccn2)nc1)N1CCCC(n2cccn2)C1 (stereo not shown) the result was -3.078%.
For Cc1nn(C)c(C)c1C1COCCN1C(=O)Cc1cccc(F)c1 (stereo not shown) the result was 11.22%.
For CCS(=O)(=O)N1CCc2c(CN(C)Cc3ccco3)cncc2C1.Cl.Cl the result was 2.056%.
For O=C(O)c1nnn(-c2ccccc2F)c1-c1ccncc1 the result was 1.544%.
For Cc1ccc(C(=O)N2CCC3(CC2)CC(c2cnn(C)c2)CO3)cn1.O=C(O)C(F)(F)F (stereo not shown) the result was 3.179%.
For CC(C(=O)NC1CC1)N1CCN(Cc2ccn(C)c(=O)c2)CC1 (stereo not shown) the result was 10.45%.
For O=C(O)C(F)(F)F.c1cncc(N2CCOCC3(CCCN(c4nncs4)C3)C2)c1 (stereo not shown) the result was 14.88%.
For N#Cc1ccccc1C(=O)N1CCC2(CC(=O)NC2=O)C1 (stereo not shown) the result was -6.941%.
For CC(C)c1noc(-c2ccc(NCc3noc(C(C)C)n3)nc2)n1 the result was -22.59% & -18.17%.
For Cc1cc(C(=O)N2CCc3ncc(CN4CCCCC4)n3CC2)no1 the result was 18.65%.
For Cc1ccc(C(=O)Nc2ccc(OC3CCN(C)CC3)cc2)c(C)c1 the result was -15.62% & 0.614% & -35.32%.
For COc1cccc(S(=O)(=O)CCNC2CCc3ncnn3C2)c1 (stereo not shown) the result was 3.038%.
For CN(C)[C@H]1CCCCN(C(=O)c2cccc(-c3cccc(F)c3)c2)C1 the result was -11.23%.
For CCOCC(=O)N1CCC2(CC1)CC(c1ccccc1)CO2 (stereo not shown) the result was 4.051%.
For Cc1nc(O)cc(C2CCN(Cc3cccc(F)c3F)C2)n1.O=C(O)CC(O)(CC(=O)O)C(=O)O (stereo not shown) the result was -6.28%.
For CN(Cc1cnccn1)C(=O)c1ccnc(OC2CCC2)c1 the result was 0.5882%.
For CC(=O)Nc1ccc(CNC2CC(=O)N(Cc3cccc(F)c3)C2)cc1 (stereo not shown) the result was -8.824%.
For COc1ccc(CN2CCC3(CC2)CCN(c2ncccn2)CC3)cc1 the result was -13.03%.
For CCN1CCC2(CC1)CC(NC(=O)c1c[nH]cn1)c1ccccc1O2 (stereo not shown) the result was 0.5963%.
For CNc1cc(C2CCCN2C(=O)CCc2cnn(C)c2C)ccn1 (stereo not shown) the result was -0.3836%.
For CC(C)c1nc2c(n1C)CCN(Cc1cccc(OCC(N)=O)c1)C2 the result was 7.138%.
For CCN1Cc2cc(F)ccc2N(C(C)=O)CCC1=O the result was 6.812%.
For O=C(CCN1CCCCO1)NC1CCCN(CC2CCCCC2)C1 (stereo not shown) the result was -0.7692%.
For CCn1ncc(CN2CCC(O)(Cn3ccc4ncccc43)CC2)c1C the result was 5.954%.
For COc1cc(N2CCC3(CC2)CC(N2CCOCC2)CO3)ncn1 (stereo not shown) the result was 1.711%.
For Cc1ccc(CNCC2Cn3nnc(-c4cnn(C)c4)c3CO2)o1 (stereo not shown) the result was -4.084%.
For Cc1c(NC(=O)c2cnc[nH]2)cccc1C(=O)NC(C)(C)C the result was -6.142%.
For CC(=O)N1CCCC1c1cccc(Cc2ccccc2Cl)n1 (stereo not shown) the result was -2.931%.
For O=C(O)C(F)(F)F.O=C(O)C(F)(F)F.O=C(O)CN1CCCC2(CCN2Cc2cccc(F)c2)C1 (stereo not shown) the result was -7.881%.
For CN1CCC(n2nc(Cc3cccs3)nc2-c2ccncc2)CC1 the result was -7.439% & 5.25%.